Consider one substance from patent US20190083587A1 (Novo Nordisk, published 2019).

Chains of the proteins cited; added tags and fusions are not shown. Lines headed by an entry give the natural chain unless they say otherwise; changes in a name come on top.
UniProt P02671: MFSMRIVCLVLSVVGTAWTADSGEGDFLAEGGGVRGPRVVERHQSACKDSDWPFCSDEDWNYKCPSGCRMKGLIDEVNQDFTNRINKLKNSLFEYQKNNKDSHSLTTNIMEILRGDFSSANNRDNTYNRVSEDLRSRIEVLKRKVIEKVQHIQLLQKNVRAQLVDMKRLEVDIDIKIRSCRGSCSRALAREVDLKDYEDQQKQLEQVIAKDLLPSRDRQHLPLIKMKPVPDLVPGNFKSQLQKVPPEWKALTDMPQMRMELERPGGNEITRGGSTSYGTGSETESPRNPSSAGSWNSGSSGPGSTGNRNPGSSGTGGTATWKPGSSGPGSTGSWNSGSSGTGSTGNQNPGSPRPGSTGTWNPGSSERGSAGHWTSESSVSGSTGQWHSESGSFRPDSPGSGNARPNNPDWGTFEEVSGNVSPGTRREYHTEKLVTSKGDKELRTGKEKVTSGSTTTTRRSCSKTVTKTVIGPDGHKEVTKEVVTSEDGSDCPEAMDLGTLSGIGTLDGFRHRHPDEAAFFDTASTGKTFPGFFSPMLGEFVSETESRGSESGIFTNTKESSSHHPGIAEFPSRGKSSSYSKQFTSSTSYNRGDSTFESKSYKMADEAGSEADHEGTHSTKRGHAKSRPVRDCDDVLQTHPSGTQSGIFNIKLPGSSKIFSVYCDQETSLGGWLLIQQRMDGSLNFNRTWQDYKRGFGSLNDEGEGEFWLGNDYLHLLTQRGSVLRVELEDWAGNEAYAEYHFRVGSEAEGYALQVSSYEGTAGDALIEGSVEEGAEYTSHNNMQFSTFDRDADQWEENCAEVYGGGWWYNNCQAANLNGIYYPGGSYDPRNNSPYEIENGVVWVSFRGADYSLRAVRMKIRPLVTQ

These are yes or no findings as the source states them, for the method shown. Some results given as binding are weak or reduced against the parent protein; the word gives no strength. Where a sequence is shown, tags or fusion partners need not be part of it.

In the test the target is T1, hTLT-1 ECD-His (human, UniProt Q86YW5 16-162).
T1 construct: Extracellular domain of human TLT-1 with C-terminal His-6 tag; the range 16-168 is computed from these; also called TLT-1-His; His tagged human TLT1
T1 sequence: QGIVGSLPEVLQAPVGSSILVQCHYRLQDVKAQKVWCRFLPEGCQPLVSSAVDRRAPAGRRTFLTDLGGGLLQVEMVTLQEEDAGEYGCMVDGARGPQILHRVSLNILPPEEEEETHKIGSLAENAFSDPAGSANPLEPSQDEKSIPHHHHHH
The test is described as follows: SPR Biacore T100. (Surface plasmon resonance follows binding to a sensor surface in real time, without labels.)

As to “human fibrinogen (from UniProt P02671 20-629; P02675 31-491; P02679 27-437) (ligand)”, the binding result is given as “binds”.
